Data from patent US20250381242A1 (INVAIO SCIENCES, INC., priority 2024, published 2025).

Assays:
L. crescens = details: 10 μM
A. tumefaciens = details: 24 h, 10 μM
E. amylovora = details: 24 h, 10 μM
E. coli = experiment: Bacterial growth inhibition by OD600 absorbance, E. coli; format: cell-based, E. coli (DH5-alpha); details: peptide 10 μM, 24 hours at 37° C., OD 600 nm
Protocol: (§1) Antimicrobial activity of antimicrobial peptides was tested against the agricultural microbial pests A. tumefaciens, E. amylovora, E. coli, and X. citri, using OD absorbance measurement to detect bacterial growth.
(§2) Antimicrobial peptides were synthesized using solid phase peptide synthesis method and resuspended in 10% DMSO to a 1 mM stock concentration. The stock solution was aliquoted in cryovials and stored at −80° C.
(§3) An aliquot of 198 μl of the bacterial culture was added to each well in a 96-well plate and 2 μl of a 1 mM peptide stock solution was added to each well, for a final treatment concentration of 10 μM of a given peptide. Media only wells were included to control for contamination. The positive controls were 50 μg/ml oxytetracycline hydrochloride and 500 μg/ml streptomycin sulfate. A 0.1% DMSO treatment was included as a negative control.
(§4) An initial absorbance reading of the bacterial suspensions was taken at 600 nm. Then, the bacteria were grown in an incubator at 30° C. (A. tumefaciens, E. amylovora, X. citri) or 37° C. (E. coli) for 24 hours, after which the final absorbance reading was measured. Using the initial and final absorbance reading compared to negative and positive controls, the percent inhibition of the bacterial strain by given peptide treatment was determined.

X. citri = experiment: Bacterial growth inhibition by OD600 absorbance, X. citri; format: cell-based, X. citri subsp. citri (ATCC 49118); details: peptide 10 μM, 24 hours at 30° C., OD 600 nm
Protocol: as §1, §2, §3, §4

Structure (SMILES) | growth inhibition, L. crescens (L. crescens) [%] | growth inhibition, A. tumefaciens (A. tumefaciens) [%] | growth inhibition, E. amylovora (E. amylovora) [%] | growth inhibition, E. coli (E. coli) [%] | growth inhibition, X. citri (X. citri) [%]
CC[C@H](C)[C@H](NC(=O)[C@H](CC(C)C)NC(=O)[C@@H]1CCCN1C(=O)[C@H](CCCCN)NC(=O)[C@H](C)NC(=O)[C@@H](NC(=O)[C@@H](NC(=O)[C@@H](NC(=O)[C@@H](NC(=O)[C@H](CCCCN)NC(=O)[C@H](CCCCN)NC(=O)[C@H](C)NC(=O)[C@H](C)NC(=O)[C@H](CO)NC(=O)[C@@H](NC(=O)[C@H](CC(C)C)NC(=O)[C@H](CCCCN)NC(=O)[C@H](CCCCN)NC(=O)[C@@H](NC(=O)[C@H](Cc1ccccc1)NC(=O)[C@H](CO)NC(=O)[C@H](CCCCN)NC(=O)[C@H](Cc1c[nH]c2ccccc12)NC(=O)[C@@H](N)CCCCN)[C@@H](C)CC)[C@@H](C)O)C(C)C)C(C)C)[C@@H](C)O)[C@@H](C)O)C(=O)N[C@@H](CO)C(=O)N[C@@H](CO)C(=O)O [compound 27] | <90 | 100.00 | 100.00 | 98.53 | 100.00
CC[C@H](C)[C@H](NC(=O)[C@H](Cc1ccccc1)NC(=O)[C@H](CC(C)C)NC(=O)[C@H](CCCNC(=N)N)NC(=O)[C@@H](NC(=O)[C@H](CCCCN)NC(=O)[C@@H](NC(=O)[C@H](CC(C)C)NC(=O)[C@@H](N)C(C)C)[C@@H](C)CC)[C@@H](C)O)C(=O)N[C@@H](CCCCN)C(=O)N[C@@H](CCCNC(=N)N)C(=O)N[C@@H](CCCCN)C(=O)O [compound 127] |  | <90 | <90 | <90 | <90
